{"source": "PubChem BioAssay AID901", "about": "(National Center for Advancing Translational Sciences (NCATS), 2007)", "note": "The list shows a part of the results. These are further read-outs of the screen, such as a control signal, another cell line or another target. No call is given for them. Most of these compounds were active or inconclusive in the main read-out, so they are no random draw. Words in brackets tell the shape of the fitted curve; partial curves, single points and poor fits give uncertain potencies."}
{"experiment": "qHTS Assay for Identifying the Cell-Membrane Permeable IMPase Inhibitors", "details": "CHO-M1 cells, IP1 accumulation, HTRF TR-FRET ratio; measured here: donor channel 620 nm AC50"}
{"compound": "Cc1oc2nc(SCC(=O)NCCCO)nc(N)c2c1C", "AC50": "0.251 µM [falling, full curve]"}
{"compound": "N#Cc1nc(N2CCOCC2)nc(N2CCOCC2)n1", "AC50": "1 µM [falling, full curve, poor fit]"}
{"compound": "Cc1[nH]c(C(=O)N/N=C/c2ccc(C(=O)O)cc2)c(C)c1C(=O)N/N=C/c1ccc(C(=O)O)cc1", "AC50": "11.2 µM [falling, single point]"}
{"compound": "CCn1nnc(NC(=O)CSc2ccc(Cl)cc2)n1", "AC50": "2 µM [falling, full curve, poor fit]"}
{"compound": "O=C(C1CCN(c2nnc(-n3cccc3)s2)CC1)N1CCN(c2cccc(C(F)(F)F)c2)CC1", "AC50": "31.6 µM [rising, single point]"}
{"compound": "COc1cccc(NC(=O)CSc2nc(N)cc(N)n2)c1", "AC50": "35.5 µM [falling, single point]"}
{"compound": "O=C(NCCCCNC(=O)c1ccc(Cl)s1)c1ccc(Cl)s1", "AC50": "0.501 µM [falling, full curve]"}
{"compound": "CCc1nnc(NC(=O)c2ccc(S(=O)(=O)N(CC)Cc3ccccc3)cc2)o1", "AC50": "0.0126 µM [falling, full curve]"}
{"compound": "CCCN1C=CC(=C/C=C(\\C#N)C(=O)OCC)C=C1", "AC50": "31.6 µM [falling, single point]"}
{"compound": "CC(=O)Nc1cccc(N(C)S(C)(=O)=O)c1", "AC50": "5.62 µM [rising, single point]"}
{"compound": "CCCCOc1ccc(C2(C(=O)O)CCCC2)cc1", "AC50": "0.0398 µM [falling, full curve, poor fit]"}
{"compound": "C/C(Cl)=C/Cn1c(SCC(C)C)nc2c1c(=O)[nH]c(=O)n2C", "AC50": "25.1 µM [rising, single point]"}
{"compound": "CCOCCCn1c(SCC(=O)NC(C)C)nc2ccccc2c1=O", "AC50": "5.01 µM [rising, single point]"}
{"compound": "Cc1ccn2c(C(=O)N/N=C\\c3ccc4c(c3)OCO4)c(C)nc2c1", "AC50": "11.2 µM [falling, partial curve]"}
{"compound": "O=C(c1cccc(Cl)c1)N1CCN(C(=O)c2ccco2)CC1", "AC50": "3.16 µM [falling, partial curve]"}
{"compound": "N#CC1=C(N2CCCCC2)c2cc3c(n2C1=O)CCCC3", "AC50": "3.98 µM [falling, full curve]"}
{"compound": "Cc1ccc(NC2=NCC(=O)N2C2CCCC2)c(C)c1", "AC50": "5.01 µM [falling, single point]"}
{"compound": "Cc1cc(C)cc(OCC(=O)Nc2ccc(N3CCN(S(C)(=O)=O)CC3)cc2)c1", "AC50": "6.31 µM [rising, full curve]"}
{"compound": "COC(=O)CSc1nnc(CNC(=O)c2cc(OC)c(OC)c(OC)c2)n1C", "AC50": "0.501 µM [rising, full curve]"}
{"compound": "CC(C)(CO)Nc1ccc([N+](=O)[O-])cc1[N+](=O)[O-]", "AC50": "12.6 µM [falling, single point]"}
{"compound": "COc1cccc(-c2cc3c(=O)n(-c4ccccc4)c(=S)[nH]c3s2)c1", "AC50": "20 µM [rising, partial curve]"}
{"compound": "N#Cc1c(Cl)nc(SCc2ccccc2)nc1-c1ccccc1", "AC50": "15.8 µM [rising, single point]"}
{"compound": "CCCCOC(=O)Nc1cccc(Cl)c1C", "AC50": "5.01 µM [falling, single point]"}
{"compound": "O=C1CN(C(=O)COC(=O)C2=COCCO2)c2ccccc2N1", "AC50": "2.51 µM [rising, full curve, poor fit]"}
{"compound": "O=C(CSc1nc2ccccc2o1)NCC(=O)c1ccccc1", "AC50": "12.6 µM [rising, single point]"}
{"compound": "O=C(O)CCNc1ccc2c(c1)OCCO2", "AC50": "7.94 µM [falling, partial curve]"}
{"compound": "COc1cc(/C=C(\\C#N)c2nc3ccccc3[nH]2)ccc1OCc1ccccc1F", "AC50": "35.5 µM [rising, single point]"}
{"compound": "CCOc1ncccc1C(=O)OCc1nnc(-c2ccccc2)o1", "AC50": "0.01 µM [rising, full curve, poor fit]"}
{"compound": "CN(C(=O)COc1ccccc1)c1nnc(-c2cccnc2)s1", "AC50": "6.31 µM [falling, single point]"}
{"compound": "COc1ccc(-c2n[nH]c(C)c2-c2cnn(-c3ccccc3)c2)c(O)c1", "AC50": "31.6 µM [falling, single point]"}
{"compound": "Cc1cc(C)c2c(=O)[nH]c(SCC(=O)NCCc3ccccc3)nc2n1", "AC50": "35.5 µM [rising, single point]"}
{"compound": "Cc1cc(C)[n+](-c2ccc(F)cc2)c2[nH]c(=O)[nH]c(=O)c12", "AC50": "10 µM [rising, partial curve]"}
{"compound": "CCN1CCc2nc(NC(=O)c3ccccc3)sc2C1", "AC50": "4.47 µM [rising, single point]"}
{"compound": "NNC(=O)C1CC1c1ccccc1", "note": "(stereo not given)", "AC50": "0.631 µM [falling, partial curve, poor fit]"}
{"compound": "Cc1cc(C)c(NC(=O)CN2C(=O)NC3(CCOc4ccccc43)C2=O)c(C)c1", "note": "(stereo not given)", "AC50": "5.01 µM [falling, single point]"}
{"compound": "CC1CN(S(=O)(=O)c2ccccc2)CC(C)O1", "note": "(stereo not given)", "AC50": "0.708 µM [falling, full curve, poor fit]"}
{"compound": "Cc1cc2c(cc1C)CSC(c1ccccc1OC(=O)C(C)C)SC2", "AC50": "10 µM [falling, partial curve]"}
{"compound": "CCOC(=O)N1CCN(C(=O)c2cc3c(s2)-c2ccccc2OC3)CC1", "AC50": "0.0178 µM [rising, full curve, poor fit]"}
{"compound": "O=C(NCc1ccccc1)c1cccc(COc2cccc(Cl)c2)c1", "AC50": "6.31 µM [rising, single point]"}
{"compound": "C/C(=N/NC(N)=S)c1ccccc1[N+](=O)[O-]", "AC50": "0.398 µM [rising, full curve, poor fit]"}
{"compound": "C/[N+]([O-])=C1\\Cc2ccccc2C1=O", "AC50": "15.8 µM [falling, partial curve]"}
{"compound": "c1ccc(Oc2cccc(CN3CCOCC3)c2)cc1", "AC50": "12.6 µM [rising, partial curve, poor fit]"}
{"compound": "COCC(=O)NCCc1nc(-c2ccccc2)cs1", "AC50": "0.398 µM [falling, partial curve, poor fit]"}
{"compound": "CCC1Oc2ccc(C)cc2N(CC(=O)N(Cc2ccncc2)Cc2ccco2)C1=O", "note": "(stereo not given)", "AC50": "25.1 µM [falling, single point]"}
{"compound": "Nc1cc(=O)[nH]c(SCCNS(=O)(=O)c2ccccc2)n1", "AC50": "3.16 µM [falling, single point]"}
